For this experiment, the target named is T1, WD repeat domain 1 (WDR1) (human (in T2-4 patient-derived glioma cells)) (UniProt O75083).
T1 sequence: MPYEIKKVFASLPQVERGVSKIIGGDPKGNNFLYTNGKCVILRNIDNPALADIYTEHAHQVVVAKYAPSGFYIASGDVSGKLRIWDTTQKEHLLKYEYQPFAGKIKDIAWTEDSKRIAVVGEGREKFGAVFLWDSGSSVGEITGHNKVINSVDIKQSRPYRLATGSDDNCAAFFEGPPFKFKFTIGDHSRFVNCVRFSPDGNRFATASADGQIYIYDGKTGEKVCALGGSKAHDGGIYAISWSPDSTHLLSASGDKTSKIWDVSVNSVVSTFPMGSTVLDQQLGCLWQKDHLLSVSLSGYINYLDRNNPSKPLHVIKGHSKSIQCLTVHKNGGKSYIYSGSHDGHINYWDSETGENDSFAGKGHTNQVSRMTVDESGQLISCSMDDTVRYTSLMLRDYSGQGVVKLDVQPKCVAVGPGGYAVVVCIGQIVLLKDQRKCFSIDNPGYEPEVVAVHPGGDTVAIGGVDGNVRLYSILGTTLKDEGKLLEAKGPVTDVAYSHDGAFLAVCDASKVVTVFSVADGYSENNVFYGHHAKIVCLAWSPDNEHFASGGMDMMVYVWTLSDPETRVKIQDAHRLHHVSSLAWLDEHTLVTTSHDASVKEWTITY
In words: co-IP; IP of WDR1 from T2-4 cells and western blot of the bound proteins ('in vitro IP experiment'); treated with different concentrations of GA-amide. For orientation: A western blot detects proteins with antibodies after separation by electrophoresis.

Amino acid sequences for entries named in this document (tags omitted).
UniProt P23528: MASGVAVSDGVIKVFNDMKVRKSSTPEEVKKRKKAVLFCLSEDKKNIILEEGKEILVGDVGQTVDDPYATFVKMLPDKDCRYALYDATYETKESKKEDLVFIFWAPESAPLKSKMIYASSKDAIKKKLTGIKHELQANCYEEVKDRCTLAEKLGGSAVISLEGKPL
UniProt P35579: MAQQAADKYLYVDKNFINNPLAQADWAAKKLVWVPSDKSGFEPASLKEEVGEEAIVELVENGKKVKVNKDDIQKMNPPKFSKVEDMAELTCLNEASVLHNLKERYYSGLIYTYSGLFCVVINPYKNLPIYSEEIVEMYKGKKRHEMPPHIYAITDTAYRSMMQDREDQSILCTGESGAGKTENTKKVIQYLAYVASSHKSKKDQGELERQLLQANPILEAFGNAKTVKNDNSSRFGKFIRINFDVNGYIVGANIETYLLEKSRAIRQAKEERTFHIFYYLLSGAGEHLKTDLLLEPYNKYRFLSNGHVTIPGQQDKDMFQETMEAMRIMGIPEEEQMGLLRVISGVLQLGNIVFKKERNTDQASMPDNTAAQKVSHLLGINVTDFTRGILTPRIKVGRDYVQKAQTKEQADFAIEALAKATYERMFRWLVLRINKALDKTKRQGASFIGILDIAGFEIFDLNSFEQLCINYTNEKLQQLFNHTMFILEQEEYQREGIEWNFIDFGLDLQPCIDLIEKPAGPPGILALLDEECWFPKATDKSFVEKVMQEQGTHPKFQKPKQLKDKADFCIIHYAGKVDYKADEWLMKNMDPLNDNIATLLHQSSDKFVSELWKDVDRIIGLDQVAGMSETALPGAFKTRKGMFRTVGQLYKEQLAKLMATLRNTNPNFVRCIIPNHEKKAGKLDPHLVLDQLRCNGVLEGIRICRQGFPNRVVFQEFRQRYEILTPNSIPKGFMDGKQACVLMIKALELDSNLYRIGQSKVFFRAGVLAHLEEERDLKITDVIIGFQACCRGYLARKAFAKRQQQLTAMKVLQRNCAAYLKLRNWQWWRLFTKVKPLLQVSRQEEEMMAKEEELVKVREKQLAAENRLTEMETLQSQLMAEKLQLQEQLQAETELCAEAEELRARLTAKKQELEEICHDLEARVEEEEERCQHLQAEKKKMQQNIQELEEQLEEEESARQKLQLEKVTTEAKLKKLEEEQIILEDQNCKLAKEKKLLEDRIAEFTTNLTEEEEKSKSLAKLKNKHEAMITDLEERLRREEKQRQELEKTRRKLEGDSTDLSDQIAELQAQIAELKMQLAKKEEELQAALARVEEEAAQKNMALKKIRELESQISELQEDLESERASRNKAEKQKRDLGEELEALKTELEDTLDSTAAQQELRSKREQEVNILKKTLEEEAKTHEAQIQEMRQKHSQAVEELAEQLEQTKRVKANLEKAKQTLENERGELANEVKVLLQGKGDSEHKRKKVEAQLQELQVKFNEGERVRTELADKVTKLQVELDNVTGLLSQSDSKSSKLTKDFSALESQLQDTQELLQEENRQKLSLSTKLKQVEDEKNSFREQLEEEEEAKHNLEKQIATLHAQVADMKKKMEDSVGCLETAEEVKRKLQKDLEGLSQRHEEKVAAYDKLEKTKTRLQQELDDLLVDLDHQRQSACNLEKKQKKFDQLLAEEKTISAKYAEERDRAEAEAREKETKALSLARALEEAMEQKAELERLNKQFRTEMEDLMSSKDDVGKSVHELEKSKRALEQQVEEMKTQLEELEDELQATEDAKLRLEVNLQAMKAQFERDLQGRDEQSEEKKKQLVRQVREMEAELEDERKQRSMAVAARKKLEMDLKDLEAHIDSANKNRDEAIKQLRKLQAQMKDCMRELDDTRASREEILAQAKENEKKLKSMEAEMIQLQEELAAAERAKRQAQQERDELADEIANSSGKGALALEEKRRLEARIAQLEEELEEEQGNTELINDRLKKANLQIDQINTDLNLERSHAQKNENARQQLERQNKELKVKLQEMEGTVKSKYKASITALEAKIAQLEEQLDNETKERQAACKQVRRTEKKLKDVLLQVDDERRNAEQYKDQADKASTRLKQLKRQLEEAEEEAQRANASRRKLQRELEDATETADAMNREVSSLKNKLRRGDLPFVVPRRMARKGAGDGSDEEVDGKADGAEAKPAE

Results are given in words; binding and its absence hold for the method and conditions named. In cells and extracts the contact can be indirect. Some binding calls cover weakened binding; strength is not graded here.

On to Cofilin (from UniProt P23528 1-166), for which the binding result was “binds”.

Consider “myosin heavy chain 9 (MYH9) (from UniProt P35579 1-1960)”, for which the binding result was “binds”.
